Laboratory results: PMC8306970
These are yes or no findings as the source states them, for the method shown. In cells and extracts the contact can be indirect. Some entries that bind do so weakly or less than the wild type. For some assays here: Tags and fused reporters may be left off the sequences shown.

Chains of the proteins cited; added tags and fusions are not shown.
UniProt Q8R4B8: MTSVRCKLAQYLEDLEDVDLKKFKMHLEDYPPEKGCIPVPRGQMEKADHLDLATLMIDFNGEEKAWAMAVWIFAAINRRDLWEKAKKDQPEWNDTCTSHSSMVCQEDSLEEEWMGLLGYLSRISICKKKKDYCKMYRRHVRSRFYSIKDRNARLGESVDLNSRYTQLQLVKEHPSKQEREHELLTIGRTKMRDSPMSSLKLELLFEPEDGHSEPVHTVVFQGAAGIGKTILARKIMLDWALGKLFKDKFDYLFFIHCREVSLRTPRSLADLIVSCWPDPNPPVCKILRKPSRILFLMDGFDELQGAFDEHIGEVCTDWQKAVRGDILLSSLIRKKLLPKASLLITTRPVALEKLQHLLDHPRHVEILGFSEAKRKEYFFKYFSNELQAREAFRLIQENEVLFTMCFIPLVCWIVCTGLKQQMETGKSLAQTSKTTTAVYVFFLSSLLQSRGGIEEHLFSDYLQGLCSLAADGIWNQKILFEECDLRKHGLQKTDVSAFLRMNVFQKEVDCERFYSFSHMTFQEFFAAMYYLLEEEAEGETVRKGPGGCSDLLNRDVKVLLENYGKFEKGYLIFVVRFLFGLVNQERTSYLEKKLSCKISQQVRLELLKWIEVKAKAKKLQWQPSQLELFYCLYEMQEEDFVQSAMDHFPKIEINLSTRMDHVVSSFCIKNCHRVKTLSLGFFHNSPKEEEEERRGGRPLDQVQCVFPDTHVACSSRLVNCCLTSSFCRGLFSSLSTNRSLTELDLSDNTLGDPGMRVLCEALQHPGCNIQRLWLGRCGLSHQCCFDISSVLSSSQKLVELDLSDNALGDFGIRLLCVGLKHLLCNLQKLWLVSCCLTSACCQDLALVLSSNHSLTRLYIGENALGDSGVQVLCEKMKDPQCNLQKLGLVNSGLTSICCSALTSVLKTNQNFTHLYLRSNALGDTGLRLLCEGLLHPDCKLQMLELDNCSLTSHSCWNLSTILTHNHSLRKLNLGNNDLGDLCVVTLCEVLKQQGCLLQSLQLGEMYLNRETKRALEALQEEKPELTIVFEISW

What was measured:
[1] = molecular target: T1, TREM2 (triggering receptor expressed on myeloid cells-2) (mouse (endogenous in BV2)) (UniProt Q99NH8); assay: co-IP; BV2 lysates (WT, TREM2 KO, TREM2 OE; with or without 35 mM high glucose) in RIPA buffer (1% NP-40, 0.25% deoxycholate), immunoprecipitated with anti-TREM2 antibody or control IgG and protein A/G beads at 4 °C overnight; blotted for NLRP3 and TREM2
T1 sequence: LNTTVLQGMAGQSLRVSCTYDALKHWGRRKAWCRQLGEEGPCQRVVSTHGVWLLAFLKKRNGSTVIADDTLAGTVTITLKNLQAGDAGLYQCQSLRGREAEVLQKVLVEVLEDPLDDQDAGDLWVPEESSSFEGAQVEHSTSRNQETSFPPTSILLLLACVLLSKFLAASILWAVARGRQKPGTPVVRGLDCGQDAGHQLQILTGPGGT

[2] = molecular target: T2, pCDNA3.1(+)-3×FLAG-TREM2 (TREM2 overexpressed in BV2 cells) (murine) (UniProt Q99NH8); assay: as above
T2 sequence: T1 sequence

binding [1]: binds
binding [2]: binds
Substance: NLRP3 (nucleotide-binding oligomerization domain-like receptor protein 3) (from UniProt Q8R4B8 1-1033)
